# Assay results: the supplement of paper PMC8728848
# This is one part of the list.
# B1: PEB4 (Campylobacter jejuni), A1VYV6 (protein)
# chain: MKKFSLVAAALIAGVALNVNAATVATVNGKSISDAEVSEFFAPMLRGQDFKTLPDNQKKALIQQYIMQDLILQDAKKQNLEKDPLYTKELDRAKDAILVNVYQEKILNTIKIDAAKVKAFYDQNKDKYVKPARVQAKHILVATEKEAKDIINELKGLKGKELDAKFSELAKEKSIDPGSKNQGGELGWFDQSTMVKPFTDAAFALKNGTITTTPVKTNFGYHVILKENSQAKGQIKFDEVKQGIENGLKFEEFKKVINQKGQDLLNSAKVEYK
# Experiments:
# Assay in all cases: glycan array binding signal (z-score within array); higher = stronger binding
# Conditions in all cases: glycan notation: IUPAC condensed, linker removed
# [1] = biological target: Gal(b1-4)GlcNAc(b1-2)Man(a1-6)[GlcNAc(b1-2)Man(a1-3)]Man(b1-4)GlcNAc(b1-4)GlcNAc
# How it was run: (§1)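 Glycan array data were curated from 3228 arrays in the Consortium for Functional Glycomics database and kept only where the protein sequence was available. Glycan names were converted to IUPAC-condensed notation, and columns mapping to the same glycan were averaged. The binding signal is a within-array Z-score, averaged across arrays of the same protein sequence at different concentrations or buffers and across linkers. Negative Z-scores can be read as non-binding.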
# [2] = biological target: Gal(b1-4)GlcNAc(b1-2)Man(a1-6)[Man(a1-3)]Man(b1-4)GlcNAc(b1-4)GlcNAc
# How it was run: as §1
# [3] = biological target: Gal(b1-4)GlcNAc(b1-2)[Gal(b1-4)GlcNAc(b1-4)]Man(a1-3)[Gal(b1-4)GlcNAc(b1-2)Man(a1-6)]Man(b1-4)GlcNAc(b1-4)GlcNAc
# How it was run: as §1
# [4] = biological target: Gal(b1-4)GlcNAc(b1-2)[Gal(b1-4)GlcNAc(b1-4)]Man(a1-3)[Gal(b1-4)GlcNAc(b1-2)[Gal(b1-4)GlcNAc(b1-6)]Man(a1-6)]Man(b1-4)GlcNAc(b1-4)GlcNAc
# How it was run: as §1
# [5] = biological target: Gal(b1-4)GlcNAc(b1-3)Gal(b1-3)GlcNAc
# How it was run: as §1
# [6] = biological target: Gal(b1-4)GlcNAc(b1-3)Gal(b1-4)Glc
# How it was run: as §1
# [7] = biological target: Gal(b1-4)GlcNAc(b1-3)Gal(b1-4)GlcNAc
# How it was run: as §1
# [8] = biological target: Gal(b1-4)GlcNAc(b1-3)Gal(b1-4)GlcNAc(b1-3)Gal(b1-4)GlcNAc
# How it was run: as §1
# [9] = biological target: Gal(b1-4)GlcNAc(b1-3)Gal(b1-4)[Fuc(a1-3)]GlcNAc(b1-3)Gal(b1-4)[Fuc(a1-3)]GlcNAc
# How it was run: as §1
# [10] = biological target: Gal(b1-4)GlcNAc(b1-3)GalNAc
# How it was run: as §1
# [11] = biological target: Gal(b1-4)GlcNAc(b1-3)[Gal(b1-4)GlcNAc(b1-6)]Gal(b1-4)GlcNAc
# How it was run: as §1
# [12] = biological target: Gal(b1-4)GlcNAc(b1-3)[Gal(b1-4)GlcNAc(b1-6)]GalNAc
# How it was run: as §1
# [13] = biological target: Gal(b1-4)GlcNAc(b1-3)[GlcNAc(b1-6)]Gal(b1-4)GlcNAc
# How it was run: as §1
# [14] = biological target: Gal(b1-4)GlcNAc(b1-6)Gal(b1-4)GlcNAc
# How it was run: as §1
# [15] = biological target: Gal(b1-4)GlcNAc(b1-6)GalNAc
# How it was run: as §1
# [16] = biological target: Gal(b1-4)GlcNAc(b1-6)[Gal(b1-3)]GalNAc
# How it was run: as §1
# Gal3S(b1-3)GalNAc = biological target: Gal3S(b1-3)GalNAc
# How it was run: as §1
# Gal3S(b1-3)GlcNAc = biological target: Gal3S(b1-3)GlcNAc
# How it was run: as §1
# [17] = biological target: Gal3S(b1-3)[Fuc(a1-4)]GlcNAc
# How it was run: as §1
# Gal3S(b1-4)Glc = biological target: Gal3S(b1-4)Glc
# How it was run: as §1
# Gal3S(b1-4)Glc6S = biological target: Gal3S(b1-4)Glc6S
# How it was run: as §1
# Gal3S(b1-4)GlcNAc = biological target: Gal3S(b1-4)GlcNAc
# How it was run: as §1
# Gal3S(b1-4)GlcNAc6S = biological target: Gal3S(b1-4)GlcNAc6S
# How it was run: as §1
# [18] = biological target: Gal3S(b1-4)[Fuc(a1-3)]Glc
# How it was run: as §1
# [19] = biological target: Gal3S(b1-4)[Fuc(a1-3)]Glc6S
# How it was run: as §1
# Gal3S4S(b1-4)GlcNAc = biological target: Gal3S4S(b1-4)GlcNAc
# How it was run: as §1
# Gal3S6S(b1-4)GlcNAc = biological target: Gal3S6S(b1-4)GlcNAc
# How it was run: as §1
# Gal3S6S(b1-4)GlcNAc6S = biological target: Gal3S6S(b1-4)GlcNAc6S
# How it was run: as §1
# Gal4S(b1-4)GlcNAc = biological target: Gal4S(b1-4)GlcNAc
# How it was run: as §1
# Gal4S6S(b1-4)GlcNAc = biological target: Gal4S6S(b1-4)GlcNAc
# How it was run: as §1
# Gal6S(b1-4)Glc = biological target: Gal6S(b1-4)Glc
# How it was run: as §1
# Gal6S(b1-4)Glc6S = biological target: Gal6S(b1-4)Glc6S
# How it was run: as §1
# Gal6S(b1-4)GlcNAc = biological target: Gal6S(b1-4)GlcNAc
# How it was run: as §1
# Gal6S(b1-4)GlcNAc6S = biological target: Gal6S(b1-4)GlcNAc6S
# How it was run: as §1
# GalNAc(a1-3)Gal = biological target: GalNAc(a1-3)Gal
# How it was run: as §1
# GalNAc(a1-3)GalNAc = biological target: GalNAc(a1-3)GalNAc
# How it was run: as §1
# [20] = biological target: GalNAc(a1-3)GalNAc(a1-3)Gal(a1-4)Gal(b1-4)GlcNAc
# How it was run: as §1
# GalNAc(b1-3)Gal = biological target: GalNAc(b1-3)Gal
# How it was run: as §1
binder,measurement,setting,value
B1,glycan array binding signal (z-score),[1],-0.711
same,glycan array binding signal (z-score),[2],0.224
same,glycan array binding signal (z-score),[3],2.58
same,glycan array binding signal (z-score),[4],-0.075
same,glycan array binding signal (z-score),[5],-0.273
same,glycan array binding signal (z-score),[6],-0.221
same,glycan array binding signal (z-score),[7],-0.828
same,glycan array binding signal (z-score),[8],-0.659
same,glycan array binding signal (z-score),[9],-0.063
same,glycan array binding signal (z-score),[10],-0.283
same,glycan array binding signal (z-score),[11],0.53
same,glycan array binding signal (z-score),[12],1.2
same,glycan array binding signal (z-score),[13],1.47
same,glycan array binding signal (z-score),[14],-0.647
same,glycan array binding signal (z-score),[15],1.2
same,glycan array binding signal (z-score),[16],-0.709
same,glycan array binding signal (z-score),Gal3S(b1-3)GalNAc,0.405
same,glycan array binding signal (z-score),Gal3S(b1-3)GlcNAc,0.006
same,glycan array binding signal (z-score),[17],-0.243
same,glycan array binding signal (z-score),Gal3S(b1-4)Glc,1.21
same,glycan array binding signal (z-score),Gal3S(b1-4)Glc6S,0.487
same,glycan array binding signal (z-score),Gal3S(b1-4)GlcNAc,1.19
same,glycan array binding signal (z-score),Gal3S(b1-4)GlcNAc6S,-0.071
same,glycan array binding signal (z-score),[18],-0.429
same,glycan array binding signal (z-score),[19],1.27
same,glycan array binding signal (z-score),Gal3S4S(b1-4)GlcNAc,-0.119
same,glycan array binding signal (z-score),Gal3S6S(b1-4)GlcNAc,-0.279
same,glycan array binding signal (z-score),Gal3S6S(b1-4)GlcNAc6S,-0.532
same,glycan array binding signal (z-score),Gal4S(b1-4)GlcNAc,-0.002
same,glycan array binding signal (z-score),Gal4S6S(b1-4)GlcNAc,0.392
same,glycan array binding signal (z-score),Gal6S(b1-4)Glc,-0.434
same,glycan array binding signal (z-score),Gal6S(b1-4)Glc6S,-0.6
same,glycan array binding signal (z-score),Gal6S(b1-4)GlcNAc,0.243
same,glycan array binding signal (z-score),Gal6S(b1-4)GlcNAc6S,-0.109
same,glycan array binding signal (z-score),GalNAc(a1-3)Gal,-0.108
same,glycan array binding signal (z-score),GalNAc(a1-3)GalNAc,0.033
same,glycan array binding signal (z-score),[20],1.1
same,glycan array binding signal (z-score),GalNAc(b1-3)Gal,-0.614

# Part of the list above, as tab-separated lines.
binder	measurement	setting	value
B1	glycan array binding signal (z-score)	GalNAc(a1-3)Gal	-0.108
same	glycan array binding signal (z-score)	GalNAc(a1-3)GalNAc	0.033
